Assay results as given in PMC7524730.
These are yes or no findings as the source states them, for the method shown. Binding seen in cells or lysates may run through a third protein. Some entries that bind do so weakly or less than the wild type. For some assays here: Tags and fused reporters may be left off the sequences shown. Values belong to the substance of their own block, whether it stands above or below them.

Protein sequences, listed by entry. Tags and fused reporters are not part of them.
UniProt O14744: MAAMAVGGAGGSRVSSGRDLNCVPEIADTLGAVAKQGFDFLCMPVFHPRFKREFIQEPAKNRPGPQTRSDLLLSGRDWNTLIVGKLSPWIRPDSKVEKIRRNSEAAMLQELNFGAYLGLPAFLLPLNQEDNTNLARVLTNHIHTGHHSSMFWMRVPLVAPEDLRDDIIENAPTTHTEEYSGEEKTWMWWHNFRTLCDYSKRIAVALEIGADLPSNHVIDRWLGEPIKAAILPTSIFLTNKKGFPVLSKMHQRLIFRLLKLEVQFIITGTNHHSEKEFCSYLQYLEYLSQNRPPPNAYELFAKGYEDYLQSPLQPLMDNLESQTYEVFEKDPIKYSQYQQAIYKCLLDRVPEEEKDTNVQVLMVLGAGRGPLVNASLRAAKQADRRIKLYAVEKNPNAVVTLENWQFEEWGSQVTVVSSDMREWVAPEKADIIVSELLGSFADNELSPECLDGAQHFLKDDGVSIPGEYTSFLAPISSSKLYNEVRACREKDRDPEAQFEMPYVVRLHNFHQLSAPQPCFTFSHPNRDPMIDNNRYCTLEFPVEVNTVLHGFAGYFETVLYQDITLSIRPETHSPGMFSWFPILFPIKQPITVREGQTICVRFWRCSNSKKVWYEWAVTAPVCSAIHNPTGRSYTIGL

Legend:
[1] = molecular target: T1, Lymphoid-specific helicase (LSH), expressed in 293T cells (human) (UniProt Q9NRZ9); test: co-IP; IP with an anti-LSH antibody from 293T cells ectopically expressing LSH, IB with the indicated antibodies; IgG as isotype control; antibody overnight at 4 °C, Dynabeads Protein G
T1 sequence: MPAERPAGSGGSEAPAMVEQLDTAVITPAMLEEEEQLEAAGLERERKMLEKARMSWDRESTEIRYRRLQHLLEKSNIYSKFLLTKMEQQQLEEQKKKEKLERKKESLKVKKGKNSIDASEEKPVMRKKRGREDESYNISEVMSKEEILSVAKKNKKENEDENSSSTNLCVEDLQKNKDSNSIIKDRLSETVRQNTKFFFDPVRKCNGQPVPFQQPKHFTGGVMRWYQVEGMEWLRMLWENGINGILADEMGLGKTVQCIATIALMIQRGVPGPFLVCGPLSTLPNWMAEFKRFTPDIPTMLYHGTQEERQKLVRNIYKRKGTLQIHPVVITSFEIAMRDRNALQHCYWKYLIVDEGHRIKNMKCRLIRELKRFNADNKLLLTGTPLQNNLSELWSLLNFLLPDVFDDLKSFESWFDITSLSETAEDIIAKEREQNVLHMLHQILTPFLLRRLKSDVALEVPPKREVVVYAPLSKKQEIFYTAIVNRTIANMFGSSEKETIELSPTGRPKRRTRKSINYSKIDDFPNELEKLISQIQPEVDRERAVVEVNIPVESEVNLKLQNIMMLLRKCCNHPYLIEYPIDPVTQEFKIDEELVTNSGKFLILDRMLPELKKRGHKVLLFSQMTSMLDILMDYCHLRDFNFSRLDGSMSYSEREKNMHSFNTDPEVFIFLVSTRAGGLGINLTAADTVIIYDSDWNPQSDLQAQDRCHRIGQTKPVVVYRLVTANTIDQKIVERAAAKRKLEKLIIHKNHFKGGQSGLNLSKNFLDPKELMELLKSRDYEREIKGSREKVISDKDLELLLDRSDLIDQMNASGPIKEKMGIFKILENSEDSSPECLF

[2] = molecular target: T2, LSH, endogenous in A549 cells (human (endogenous in A549)) (UniProt Q9NRZ9); test: co-IP; endogenous LSH and PRMT5 in A549 cells; LSH or PRMT5 immunoprecipitated, IB with anti-PRMT5 or anti-LSH; Dynabeads Protein G, 4 °C
T2 sequence: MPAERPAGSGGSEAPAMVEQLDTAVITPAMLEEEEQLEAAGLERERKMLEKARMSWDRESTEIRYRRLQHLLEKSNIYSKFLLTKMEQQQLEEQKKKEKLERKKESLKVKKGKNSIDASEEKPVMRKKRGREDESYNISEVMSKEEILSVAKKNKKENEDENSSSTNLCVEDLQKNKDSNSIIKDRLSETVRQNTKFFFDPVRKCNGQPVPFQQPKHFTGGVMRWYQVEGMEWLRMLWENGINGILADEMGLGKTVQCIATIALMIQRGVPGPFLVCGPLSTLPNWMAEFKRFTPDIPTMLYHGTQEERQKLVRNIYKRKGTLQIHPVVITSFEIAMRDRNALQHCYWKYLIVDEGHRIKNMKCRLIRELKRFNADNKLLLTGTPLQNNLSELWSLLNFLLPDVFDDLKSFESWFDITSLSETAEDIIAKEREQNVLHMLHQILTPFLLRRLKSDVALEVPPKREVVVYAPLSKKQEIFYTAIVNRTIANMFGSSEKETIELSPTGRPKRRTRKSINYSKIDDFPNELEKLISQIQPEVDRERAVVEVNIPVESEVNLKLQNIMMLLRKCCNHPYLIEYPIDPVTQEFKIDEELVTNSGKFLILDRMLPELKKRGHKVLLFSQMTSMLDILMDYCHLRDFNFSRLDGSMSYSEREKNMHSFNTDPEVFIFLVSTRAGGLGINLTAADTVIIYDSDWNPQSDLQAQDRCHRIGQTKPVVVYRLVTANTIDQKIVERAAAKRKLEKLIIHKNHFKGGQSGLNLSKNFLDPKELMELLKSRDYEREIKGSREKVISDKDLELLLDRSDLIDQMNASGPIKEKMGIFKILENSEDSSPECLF

[3] = molecular target: T3, LSH S503A mutant, stably expressed in PC9 cells (human) (UniProt Q9NRZ9); test: co-IP; PC9 cells stably expressing Vector, LSH WT, R309A or S503A; IP then IB for PRMT5 and LSH
T3 sequence: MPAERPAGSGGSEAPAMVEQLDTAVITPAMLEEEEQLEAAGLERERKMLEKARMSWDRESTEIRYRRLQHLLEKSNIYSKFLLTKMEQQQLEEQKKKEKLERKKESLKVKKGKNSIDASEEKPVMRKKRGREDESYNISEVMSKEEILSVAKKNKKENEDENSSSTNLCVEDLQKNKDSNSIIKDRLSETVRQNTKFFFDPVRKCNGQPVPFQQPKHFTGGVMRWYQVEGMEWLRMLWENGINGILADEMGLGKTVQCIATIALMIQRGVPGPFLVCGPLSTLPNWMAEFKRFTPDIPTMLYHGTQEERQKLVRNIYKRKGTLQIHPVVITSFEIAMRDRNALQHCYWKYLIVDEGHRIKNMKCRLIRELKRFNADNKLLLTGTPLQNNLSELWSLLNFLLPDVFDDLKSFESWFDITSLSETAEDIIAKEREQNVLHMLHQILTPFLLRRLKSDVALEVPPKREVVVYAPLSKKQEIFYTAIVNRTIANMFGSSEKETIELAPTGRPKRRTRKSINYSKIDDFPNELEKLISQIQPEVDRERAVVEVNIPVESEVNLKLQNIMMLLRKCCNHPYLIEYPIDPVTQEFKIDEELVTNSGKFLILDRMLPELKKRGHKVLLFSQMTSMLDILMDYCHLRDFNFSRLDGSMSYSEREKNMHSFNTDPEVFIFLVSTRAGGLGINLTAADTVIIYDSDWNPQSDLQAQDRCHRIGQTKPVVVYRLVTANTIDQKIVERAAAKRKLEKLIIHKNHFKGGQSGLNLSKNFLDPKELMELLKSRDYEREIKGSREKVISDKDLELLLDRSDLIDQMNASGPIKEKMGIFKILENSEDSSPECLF

[4] = molecular target: T4, LSH WT, stably expressed in PC9 cells (human) (UniProt Q9NRZ9); test: as above
T4 sequence: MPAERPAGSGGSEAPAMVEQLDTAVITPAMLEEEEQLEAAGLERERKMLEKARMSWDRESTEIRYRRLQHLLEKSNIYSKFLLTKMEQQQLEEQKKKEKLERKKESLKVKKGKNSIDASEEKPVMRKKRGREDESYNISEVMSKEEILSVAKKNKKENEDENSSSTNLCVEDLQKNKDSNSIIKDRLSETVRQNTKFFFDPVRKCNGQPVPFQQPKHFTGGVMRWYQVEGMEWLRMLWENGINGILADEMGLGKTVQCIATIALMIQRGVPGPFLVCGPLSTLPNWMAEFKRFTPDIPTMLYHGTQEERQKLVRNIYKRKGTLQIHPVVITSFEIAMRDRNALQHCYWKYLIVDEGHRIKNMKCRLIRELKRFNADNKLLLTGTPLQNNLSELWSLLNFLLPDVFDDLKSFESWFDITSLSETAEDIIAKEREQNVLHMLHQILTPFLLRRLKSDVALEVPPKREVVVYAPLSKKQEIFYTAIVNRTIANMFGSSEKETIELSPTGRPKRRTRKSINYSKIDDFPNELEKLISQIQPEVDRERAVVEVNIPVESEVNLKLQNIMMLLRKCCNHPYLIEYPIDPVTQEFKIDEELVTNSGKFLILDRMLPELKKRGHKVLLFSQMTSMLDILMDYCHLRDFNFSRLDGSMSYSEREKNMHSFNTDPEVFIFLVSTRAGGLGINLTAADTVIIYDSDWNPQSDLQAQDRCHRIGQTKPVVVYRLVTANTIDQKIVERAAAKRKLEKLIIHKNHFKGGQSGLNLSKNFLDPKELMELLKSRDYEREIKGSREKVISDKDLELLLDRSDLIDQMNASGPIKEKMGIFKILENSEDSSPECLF

[5] = molecular target: T5, LSH R309A mutant, stably expressed in PC9 cells (human) (UniProt Q9NRZ9); test: as above
T5 sequence: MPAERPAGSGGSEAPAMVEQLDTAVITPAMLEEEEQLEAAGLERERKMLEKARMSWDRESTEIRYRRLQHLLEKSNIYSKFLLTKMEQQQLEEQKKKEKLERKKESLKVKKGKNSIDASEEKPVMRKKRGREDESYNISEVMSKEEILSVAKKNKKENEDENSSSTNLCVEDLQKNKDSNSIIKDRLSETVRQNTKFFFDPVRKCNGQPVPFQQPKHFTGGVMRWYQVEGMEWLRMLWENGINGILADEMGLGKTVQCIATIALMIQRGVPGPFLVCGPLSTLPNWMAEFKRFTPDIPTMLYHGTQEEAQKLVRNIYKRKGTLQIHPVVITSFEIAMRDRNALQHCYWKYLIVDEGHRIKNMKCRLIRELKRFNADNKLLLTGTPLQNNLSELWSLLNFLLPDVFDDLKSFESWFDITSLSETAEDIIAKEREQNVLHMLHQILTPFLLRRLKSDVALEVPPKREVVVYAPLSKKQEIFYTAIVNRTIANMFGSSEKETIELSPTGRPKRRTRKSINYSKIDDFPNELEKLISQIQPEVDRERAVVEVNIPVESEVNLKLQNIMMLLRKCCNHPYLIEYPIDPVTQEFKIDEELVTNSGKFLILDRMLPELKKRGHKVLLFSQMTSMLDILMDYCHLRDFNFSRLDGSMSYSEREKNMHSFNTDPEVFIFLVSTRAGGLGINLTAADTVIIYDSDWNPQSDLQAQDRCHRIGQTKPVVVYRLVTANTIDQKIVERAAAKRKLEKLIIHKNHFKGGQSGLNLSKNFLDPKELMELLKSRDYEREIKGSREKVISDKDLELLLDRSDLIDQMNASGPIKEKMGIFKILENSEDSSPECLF

[6] = molecular target: T6, Flag-tagged LSH amino acids 227-589 (human) (UniProt Q9NRZ9); test: co-IP; Flag-tagged LSH and HA-tagged PRMT5 full-length or truncation constructs cotransfected into 293T cells; IP then IB
T6 sequence: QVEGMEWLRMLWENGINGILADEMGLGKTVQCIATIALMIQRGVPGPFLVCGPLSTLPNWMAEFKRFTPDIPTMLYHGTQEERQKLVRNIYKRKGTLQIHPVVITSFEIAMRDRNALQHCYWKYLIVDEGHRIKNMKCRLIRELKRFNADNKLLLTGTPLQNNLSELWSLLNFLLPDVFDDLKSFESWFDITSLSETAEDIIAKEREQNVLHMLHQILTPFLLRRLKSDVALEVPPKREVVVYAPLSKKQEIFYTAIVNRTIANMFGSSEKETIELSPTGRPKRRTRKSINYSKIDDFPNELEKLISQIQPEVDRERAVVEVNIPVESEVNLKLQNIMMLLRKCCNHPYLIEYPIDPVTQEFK

[7] = molecular target: T1, Lymphoid-specific helicase (LSH), expressed in 293T cells (human); test: co-IP; exogenous LSH and PRMT5 in H358 and 293T cells; LSH or PRMT5 immunoprecipitated, IB with anti-PRMT5 or anti-LSH; Dynabeads Protein G, 4 °C
[8] = molecular target: T7, GST-LSH fusion protein (human) (UniProt Q9NRZ9); test: pull-down; GST pull-down; GST-LSH expressed in E. coli as bait, HA-tagged PRMT5 expressed in 293T cells; only the target purified
T7 sequence: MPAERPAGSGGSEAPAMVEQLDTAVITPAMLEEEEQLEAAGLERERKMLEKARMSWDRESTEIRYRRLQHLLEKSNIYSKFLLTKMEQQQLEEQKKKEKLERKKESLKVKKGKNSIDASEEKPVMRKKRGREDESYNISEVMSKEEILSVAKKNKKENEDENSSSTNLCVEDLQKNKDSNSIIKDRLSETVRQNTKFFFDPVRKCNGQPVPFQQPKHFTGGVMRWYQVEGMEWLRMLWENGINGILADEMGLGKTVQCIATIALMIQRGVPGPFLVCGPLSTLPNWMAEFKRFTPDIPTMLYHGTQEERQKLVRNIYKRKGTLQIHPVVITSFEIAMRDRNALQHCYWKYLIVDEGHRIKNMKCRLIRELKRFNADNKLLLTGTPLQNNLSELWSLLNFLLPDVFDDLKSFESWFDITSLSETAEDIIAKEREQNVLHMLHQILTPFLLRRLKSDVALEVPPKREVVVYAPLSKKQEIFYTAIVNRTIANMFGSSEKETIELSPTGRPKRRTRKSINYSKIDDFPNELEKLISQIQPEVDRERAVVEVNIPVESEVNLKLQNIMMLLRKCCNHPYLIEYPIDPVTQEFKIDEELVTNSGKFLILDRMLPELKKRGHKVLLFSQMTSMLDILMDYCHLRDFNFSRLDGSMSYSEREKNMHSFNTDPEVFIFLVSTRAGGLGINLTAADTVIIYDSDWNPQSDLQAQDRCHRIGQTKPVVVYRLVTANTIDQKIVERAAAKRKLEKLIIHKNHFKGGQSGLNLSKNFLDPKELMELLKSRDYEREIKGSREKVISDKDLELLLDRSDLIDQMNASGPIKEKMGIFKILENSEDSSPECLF

binding [1]: binds
Substance: Protein arginine methyltransferase 5 (PRMT5), in 293T cells expressing LSH (from UniProt O14744 1-637) (enzyme)

binding [2]: binds
Substance: PRMT5, endogenous in A549 cells (from UniProt O14744 1-637) (enzyme)

binding [3]: binds
binding [4]: binds
binding [5]: binds
Substance: PRMT5, in PC9 cells (from UniProt O14744 1-637) (enzyme)

binding [6]: binds
binding [7]: binds
binding [8]: binds
Substance: HA-tagged full-length PRMT5 (from UniProt O14744 1-637) (enzyme)
